Some compounds share one wording; it may come from a single statement. Bridge positions count the residues as written; N and C are the ends. Peptide text beside a SMILES is read from it. * marks the point of attachment. 5TAMRA = CN(C)c1ccc2c(c1)Oc1cc(N(C)C)ccc1C21OC(=O)c2cc(C(=O)*)ccc21
How the values were obtained:
MG1655 cells = test: Intracellular uptake of 5-TAMRA-AMP conjugates (single-cell fluorescence); type: cell-based, Escherichia coli; details: 50 nM 5-TAMRA conjugate plus unlabeled AMP at 2X MIC, within 10 min of growth inhibition
[1] = test system: CJW7020 cells (RplA-msfGFP) and CJW7859 cells (HupA-msfGFP); test: Spatial localization of fluorescently labeled AMPs relative to ribosome and DNA markers (SCF*); type: cell-based, Escherichia coli; details: unlabeled AMP at 2X MIC plus 5% labeled derivative; late time points

SMILES	Intracellular uptake/accumulation of fluorescent conjugate (MG1655 cells)	Intracellular localization of fluorescent conjugate [1]
CC[C@H](C)[C@H](NC(=O)CNC(=O)[C@H](CC(=O)O)NC(=O)[C@H](CCCNC(=N)N)NC(=O)[C@@H](NC(=O)[C@H](CC(N)=O)NC(=O)[C@H](CCC(N)=O)NC(=O)CNC(=O)[C@@H](NC(=O)[C@H](CCCCN)NC(=O)[C@H](CCC(=O)O)NC(=O)[C@@H](NC(=O)[C@H](CCCCN)NC(=O)[C@H](CCCCN)NC(=O)[C@H](Cc1ccccc1)NC(=O)[C@H](CC(C)C)NC(=O)[C@H](CCCCN)NC(=O)[C@H](Cc1c[nH]c2ccccc12)NC(=O)[C@H](CCCCN)NC(=O)c1ccc2c(c1)C(=O)OC21c2ccc(N(C)C)cc2Oc2cc(N(C)C)ccc21)[C@@H](C)CC)C(C)C)[C@@H](C)CC)C(=O)N[C@H](C(=O)N[C@@H](CCCCN)C(=O)N[C@@H](C)C(=O)NCC(=O)N1CCC[C@H]1C(=O)N[C@@H](C)C(=O)N[C@H](C(=O)N[C@@H](C)C(=O)N[C@H](C(=O)N[C@H](C(=O)NCC(=O)N[C@@H](CCC(N)=O)C(=O)N[C@@H](C)C(=O)N[C@H](C(=O)N[C@@H](CCC(N)=O)C(=O)N[C@H](C(=O)N[C@@H](C)C(=O)N[C@@H](CCCCN)C(N)=O)[C@@H](C)CC)[C@@H](C)O)C(C)C)C(C)C)C(C)C)[C@@H](C)CC [5-TAMRA-CecA] (5TAMRA-KWKLFKKIEKVGQNIRDGIIKAGPAVAVVGQATQIAK-NH2; C-terminus assumed)	rapid uptake and massive intracellular accumulation	co-localize with the ribosome signal
CC[C@H](C)[C@H](NC(=O)[C@H](CCCCN)NC(=O)[C@H](CCC(=O)O)NC(=O)[C@H](CCCCN)NC(=O)[C@H](CO)NC(=O)[C@H](CCCCN)NC(=O)[C@H](CCCNC(=N)N)NC(=O)[C@H](Cc1ccccc1)NC(=O)[C@H](Cc1ccccc1)NC(=O)[C@H](CC(=O)O)NC(=O)CNC(=O)[C@H](CC(C)C)NC(=O)[C@H](CC(C)C)NC(=O)c1ccc2c(c1)C(=O)OC21c2ccc(N(C)C)cc2Oc2cc(N(C)C)ccc21)C(=O)NCC(=O)N[C@@H](CCCCN)C(=O)N[C@@H](CCC(=O)O)C(=O)N[C@@H](Cc1ccccc1)C(=O)N[C@@H](CCCCN)C(=O)N[C@@H](CCCNC(=N)N)C(=O)N[C@H](C(=O)N[C@H](C(=O)N[C@@H](CCC(N)=O)C(=O)N[C@@H](CCCNC(=N)N)C(=O)N[C@H](C(=O)N[C@@H](CCCCN)C(=O)N[C@@H](CC(=O)O)C(=O)N[C@@H](Cc1ccccc1)C(=O)N[C@@H](CC(C)C)C(=O)N[C@@H](CCCNC(=N)N)C(=O)N[C@@H](CC(N)=O)C(=O)N[C@@H](CC(C)C)C(=O)N[C@H](C(=O)N1CCC[C@H]1C(=O)N[C@@H](CCCNC(=N)N)C(=O)N[C@H](C(=O)N[C@@H](CCC(=O)O)C(=O)N[C@@H](CO)C(=O)O)[C@@H](C)O)C(C)C)[C@@H](C)CC)C(C)C)[C@@H](C)CC [5-TAMRA-LL-37]	rapid uptake and massive intracellular accumulation	co-localize with the ribosome signal
CC[C@H](C)[C@@H]1NC(=O)CNC(=O)[C@H](CCCNC(=N)N)NC(=O)[C@H](Cc2ccc(O)cc2)NC(=O)[C@@H]2CSSC[C@H](NC1=O)C(=O)N[C@@H](Cc1ccc(O)cc1)C(=O)N[C@@H](CCCNC(=N)N)C(=O)N[C@@H](CCCNC(=N)N)C(=O)N[C@H](C(=O)N[C@@H](CCCNC(=N)N)C(N)=O)CSSC[C@H](NC(=O)[C@H](Cc1c[nH]c3ccccc13)NC(=O)[C@H](CCCCN)NC(=O)c1ccc3c(c1)C(=O)OC31c3ccc(N(C)C)cc3Oc3cc(N(C)C)ccc31)C(=O)N[C@@H](Cc1ccccc1)C(=O)N[C@@H](CCCNC(=N)N)C(=O)N[C@@H](C(C)C)C(=O)N2 [5-TAMRA-Tac1] (5TAMRA-KWCFRVCYRGICYRRCR-NH2; disulfide 3-16, 7-12 (inferred); C-terminus assumed)	rapid uptake and massive intracellular accumulation	co-localize with the ribosome signal

Source: article doi:10.1101/2025.04.10.648262, “Time-resolved phenotyping at subcellular resolution reveals shared principles and key trade-offs across antimicrobial peptide activities” (bioRxiv, 2026)
